Data on one substance can be found in patent US20250236655A1 (SHILPA PHARMA LIFESCIENCES LIMITED, priority 2024, published 2025).

A short description of this series: general procedure: Fmoc solid-phase peptide synthesis; Wang resin; Fmoc-Gly-resin substitution 0.3 to 0.5 mmol/g.

Substance Liraglutide displayed a step yield (purification step) of 12%. Besides, the crude yield (whole synthesis) was determined as 80%. The “final HPLC purity” value (whole synthesis, 210 nm) is listed as over 99% and the “final HPLC purity” value (whole synthesis, HPLC, 210 nm) was determined as 99.7%. Moreover, the “crude purity (method not given)” value (whole synthesis, HPLC, 210 nm) is on record as “about 55 to 60%”. Besides, the “final purity (method not given)” value runs as follows: (whole synthesis, HPLC, 210 nm, run 1) 95.95%; (whole synthesis, HPLC, 210 nm, run 2) 95.08%.
